Values from PubChem BioAssay AID1053208 (Peter MacCallum Cancer Centre, 2014).
The deposit covers about 17,000 reagents; shown is a random part of them. Over the whole deposit, 788 (4.7%) are marked active. 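Calls rest on z-score classes alone; an extra cut-off of viability at most 70% of control was not applied to them.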 Entries without a mark were called inactive. The numbers tell different reagents against one gene apart. Further read-outs or replicates are left out here.

Screen: 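Find knock-downs that sensitise mouse osteosarcoma cells to doxorubicin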 (primary screen)
Cell system: mouse osteosarcoma cells, early-passage culture from an engineered mouse model of fibroblastic bone tumour
Reagents: siRNA pool against mouse genes, 40 nM
Time to read-out: about 120 h (48 h before drug, then 72 h with drug)
Conditions: doxorubicin 100 nM for 72 h, roughly 30-40% inhibitory dose
Detection: 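Viability read as ATP luminescence after 72 h of 100 nM doxorubicin or none, duplicate wells averaged, scaled to non-targeting siRNA, then expressed as robust z-scores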
Scale: viability z-score with doxorubicin: higher = more viable cells under doxorubicin; viability z-score without drug: higher = more viable cells with knock-down alone
Hit rule: 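Called active if knock-down leaves viability unchanged without drug (z within -2 to 2) but lowers it with doxorubicin (z at or under -2)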

Target gene | pool no. | combined z-score class | viability z-score with doxorubicin | viability z-score without drug
Evi2a (ecotropic viral integration site 2a) | 1 | no change with or without drug | 0.56 | 0.17
Golgb1 (golgin B1) | 1 | no change with or without drug | 0 | 1.01
Or13a22 (olfactory receptor family 13 subfamily A member 22) | 1 | no change with or without drug | 0.67 | 0.67
A630001G21RIK | 1 | no change with or without drug | -0.22 | -0.84
Fzd1 (frizzled class receptor 1) | 1 | no change with or without drug | 1.91 | 1.52
Gpr146 (G protein-coupled receptor 146) | 1 | no change with or without drug | -0.56 | 0
Gpr146 (G protein-coupled receptor 146) | 2 | no change with or without drug | 1.01 | 1.18
2900060N12Rik (RIKEN cDNA 2900060N12 gene) | 1 | no change with or without drug | 1.8 | 1.52
Fos (Fos proto-oncogene, AP-1 transcription factor subunit) | 1 | no change with or without drug | -0.22 | 1.52
Ccnd2 (cyclin D2) | 1 | no change with or without drug | -0.22 | 0.17
Fxr2 (FMR1 autosomal homolog 2) | 1 | no change with or without drug | 0.22 | -0.17
Mnd1 (meiotic nuclear divisions 1) | 1 | no change with or without drug | -0.9 | -1.18
Cox7c (cytochrome c oxidase subunit 7C) | 1 | no change with or without drug | 0 | 0.17
Dnah11 (dynein, axonemal, heavy chain 11) | 1 | no change with or without drug | 1.12 | 0.17
Vmn1r5 (vomeronasal 1 receptor 5) | 1 | no change with or without drug | -0.9 | -0.67
Or4x6 (olfactory receptor family 4 subfamily X member 6) | 1 | no change with or without drug | -0.34 | -1.69
Aff1 (AF4/FMR2 family, member 1) | 1 | no change with or without drug | 0.34 | -0.51
Zfp324 (zinc finger protein 324) | 1 | no change with or without drug | 0.45 | 0.84
Or8c20 (olfactory receptor family 8 subfamily C member 20) | 1 | no change with or without drug | -0.45 | 1.18
Mpp2 | 1 | no change with or without drug | -1.12 | -1.01
Trrap (transformation/transcription domain-associated protein) | 1 | low cell count without drug only | -1.24 | -2.87
Pigl (phosphatidylinositol glycan anchor biosynthesis, class L) | 1 | no change with or without drug | 0 | 1.85
B430108F07RIK | 1 | no change with or without drug | 0.22 | 1.18
Mcrip2 (MAPK regulated corepressor interacting protein 2) | 1 | no change with or without drug | -1.12 | -0.67
Prr13 (proline rich 13) | 1 | high cell count without drug only | 0.67 | 2.53
Tpd52l1 (tumor protein D52-like 1) | 1 | no change with or without drug | 0.56 | -0.51
Pcdhga11 (protocadherin gamma subfamily A, 11) | 1 | no change with or without drug | -1.57 | -0.84
Vsig1 (V-set and immunoglobulin domain containing 1) | 1 | low cell count with doxorubicin only (active) | -3.15 | 1.52
Gsdma2 (gasdermin A2) | 1 | no change with or without drug | -0.45 | -1.18
B9d2 (B9 protein domain 2) | 1 | no change with or without drug | -0.67 | 0
Or5af2 (olfactory receptor family 5 subfamily AF member 2) | 1 | no change with or without drug | 0.22 | -0.34
Gpm6b (glycoprotein m6b) | 1 | no change with or without drug | 0.22 | 0.34

Only “combined z-score class”, for 6 of the entries above:
Mpp2 = no change with or without drug
Trrap (transformation/transcription domain-associated protein) = low cell count without drug only
Pigl (phosphatidylinositol glycan anchor biosynthesis, class L) = no change with or without drug
B430108F07RIK = no change with or without drug
Mcrip2 (MAPK regulated corepressor interacting protein 2) = no change with or without drug
Prr13 (proline rich 13) = high cell count without drug only

The listing continues.
Target gene | pool no. | combined z-score class | viability z-score with doxorubicin | viability z-score without drug
Rhbdd3 (rhomboid domain containing 3) | 1 | no change with or without drug | 0.45 | 1.01
Krtap19-5 (keratin associated protein 19-5) | 1 | no change with or without drug | -1.35 | 0
Nod1 (nucleotide-binding oligomerization domain containing 1) | 1 | no change with or without drug | 0.9 | 1.01
Mettl21e (methyltransferase like 21E) | 1 | no change with or without drug | 0.34 | -0.34
Tlr2 (toll-like receptor 2) | 1 | no change with or without drug | 0.9 | 0.84
Tdrd7 (tudor domain containing 7) | 1 | no change with or without drug | -0.67 | 0.51
Amigo2 (adhesion molecule with Ig like domain 2) | 1 | no change with or without drug | 0.11 | 1.18
Oser1 (oxidative stress responsive serine rich 1) | 1 | no change with or without drug | -1.69 | -1.01
Mei1 (meiotic double-stranded break formation protein 1) | 1 | no change with or without drug | 1.69 | 1.18
Ndrg2 (N-myc downstream regulated gene 2) | 1 | no change with or without drug | 1.35 | 0.51
Mad2l1bp (MAD2L1 binding protein) | 1 | no change with or without drug | 0.45 | 0.84
Slc25a10 | 1 | no change with or without drug | -0.45 | 0.67
Tmc6 (transmembrane channel-like gene family 6) | 1 | no change with or without drug | 0 | 0.17
Ctcf (CCCTC-binding factor) | 1 | no change with or without drug | 0.67 | -0.51
Magea9-ps (MAGE family member A9, pseudogene) | 1 | low cell count with and without drug | -2.7 | -3.04
Nr0b1 (nuclear receptor subfamily 0, group B, member 1) | 1 | no change with or without drug | 1.24 | 1.01
Eif1 (eukaryotic translation initiation factor 1) | 1 | no change with or without drug | -1.24 | 0.34
Creld1 (cysteine-rich with EGF-like domains 1) | 1 | no change with or without drug | 0.79 | 0.34
